The values that follow come from ChEMBL document CHEMBL4673174, “meta-Substituted benzenesulfonamide: a potent scaffold for the development of metallo-beta-lactamase ImiS inhibitors” (RSC Med Chem, 2020).

The test deals with Escherichia coli. In words: Antibacterial activity against Escherichia coli BL21 (DE3) assessed as inhibition of bacterial growth incubated for 16 hrs by CLSI broth microdilution method. In kind it is functional. (Dilution methods test growth across graded concentrations, often in twofold steps.)

In brackets after ≈: the same amount, converted by molar mass.

As a reminder, the MIC is the lowest concentration that inhibits growth of the organism.

On to `C[C@@H](O)[C@H]1C(=O)N2C(C(=O)O)=C(S[C@@H]3CN[C@H](C(=O)N(C)C)C3)[C@H](C)[C@H]12` [MEROPENEM], for which the minimal inhibitory concentration (MIC) worked out at 0.0375 µg/mL (≈ 0.0978 µM).
